For at least one entry, the source does not settle the construct or the ends of the probe. Where cells or extracts were used, other partners may take part.
Molecular target: FOXO3 (UniProt O43524)
Assay: EMSA supershift
Settings: HUDEP-2 nuclear extract, anti-FOXO3 antibody; LightShift EMSA kit (Thermo 20148X) per manufacturer's protocol; HUDEP-2 nuclear extract (NE-PER); pH and temperature not stated; protein in an extract

Chains of the proteins cited; added tags and fusions are not shown. Lines headed by an entry give the natural chain unless they say otherwise; changes in a name come on top.
UniProt O43524: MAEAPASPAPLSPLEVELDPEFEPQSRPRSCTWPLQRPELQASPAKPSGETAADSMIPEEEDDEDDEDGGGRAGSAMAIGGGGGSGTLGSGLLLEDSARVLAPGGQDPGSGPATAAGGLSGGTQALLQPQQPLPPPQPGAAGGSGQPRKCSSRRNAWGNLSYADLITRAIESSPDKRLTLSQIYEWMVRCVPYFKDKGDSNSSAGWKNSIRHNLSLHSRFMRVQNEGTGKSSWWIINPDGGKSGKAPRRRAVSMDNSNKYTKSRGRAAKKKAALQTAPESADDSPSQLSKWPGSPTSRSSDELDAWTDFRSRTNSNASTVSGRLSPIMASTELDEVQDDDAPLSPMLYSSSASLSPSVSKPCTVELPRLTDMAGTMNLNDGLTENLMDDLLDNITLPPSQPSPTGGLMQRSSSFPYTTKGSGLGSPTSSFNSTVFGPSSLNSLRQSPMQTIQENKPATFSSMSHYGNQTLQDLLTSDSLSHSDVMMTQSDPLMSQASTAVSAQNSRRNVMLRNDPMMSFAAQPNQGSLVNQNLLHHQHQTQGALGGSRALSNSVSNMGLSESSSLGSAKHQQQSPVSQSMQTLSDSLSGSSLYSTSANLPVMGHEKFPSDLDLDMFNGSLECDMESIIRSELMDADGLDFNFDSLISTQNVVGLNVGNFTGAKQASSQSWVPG

“TTTTAGCCGCCTAAACACTTTGAGCA (double strand) [insA (MT) probe -1368/-1369 HBG2 distal promoter]”: binds.
